Laboratory results published in PMC8562486.
Results are given in words; binding and its absence hold for the method and conditions named. In cells and extracts the contact can be indirect. Some entries that bind do so weakly or less than the wild type.

The chains behind the UniProt entries cited, without tags or fusion partners. Where a name states a change or a piece, a line headed by the entry shows the natural chain unless it says otherwise. A line that says so, or that is headed by a name, gives the form on record, which may keep a tag or linker.
UniProt Q9QR71: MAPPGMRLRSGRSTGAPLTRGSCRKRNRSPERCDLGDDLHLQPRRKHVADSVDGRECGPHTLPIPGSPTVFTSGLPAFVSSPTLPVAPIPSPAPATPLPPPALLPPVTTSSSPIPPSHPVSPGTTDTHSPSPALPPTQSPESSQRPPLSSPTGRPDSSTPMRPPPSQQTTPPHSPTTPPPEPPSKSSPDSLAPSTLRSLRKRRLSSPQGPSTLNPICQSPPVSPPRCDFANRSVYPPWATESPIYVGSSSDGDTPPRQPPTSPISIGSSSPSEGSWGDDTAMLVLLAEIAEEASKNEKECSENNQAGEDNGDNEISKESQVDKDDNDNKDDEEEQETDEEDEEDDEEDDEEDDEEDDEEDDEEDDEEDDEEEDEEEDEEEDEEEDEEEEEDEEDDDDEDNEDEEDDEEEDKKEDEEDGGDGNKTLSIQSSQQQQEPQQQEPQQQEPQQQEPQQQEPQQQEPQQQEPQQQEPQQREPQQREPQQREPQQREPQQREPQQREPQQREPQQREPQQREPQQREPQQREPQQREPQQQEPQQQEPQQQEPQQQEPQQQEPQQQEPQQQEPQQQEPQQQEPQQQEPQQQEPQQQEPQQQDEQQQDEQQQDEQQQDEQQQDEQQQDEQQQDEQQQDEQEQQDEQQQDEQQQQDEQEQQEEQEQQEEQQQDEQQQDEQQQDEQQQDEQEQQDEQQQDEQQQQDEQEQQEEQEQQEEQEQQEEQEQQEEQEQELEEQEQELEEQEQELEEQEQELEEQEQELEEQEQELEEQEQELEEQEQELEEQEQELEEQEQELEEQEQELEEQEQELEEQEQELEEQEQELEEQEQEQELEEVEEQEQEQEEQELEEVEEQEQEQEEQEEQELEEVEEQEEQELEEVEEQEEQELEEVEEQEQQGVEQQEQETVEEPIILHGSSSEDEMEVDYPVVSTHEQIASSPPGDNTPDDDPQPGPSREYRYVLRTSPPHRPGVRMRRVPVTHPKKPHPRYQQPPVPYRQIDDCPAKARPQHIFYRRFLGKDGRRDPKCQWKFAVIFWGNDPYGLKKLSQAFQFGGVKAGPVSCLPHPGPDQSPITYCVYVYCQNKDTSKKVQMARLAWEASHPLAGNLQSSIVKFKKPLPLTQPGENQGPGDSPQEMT
UniProt F5HCV3: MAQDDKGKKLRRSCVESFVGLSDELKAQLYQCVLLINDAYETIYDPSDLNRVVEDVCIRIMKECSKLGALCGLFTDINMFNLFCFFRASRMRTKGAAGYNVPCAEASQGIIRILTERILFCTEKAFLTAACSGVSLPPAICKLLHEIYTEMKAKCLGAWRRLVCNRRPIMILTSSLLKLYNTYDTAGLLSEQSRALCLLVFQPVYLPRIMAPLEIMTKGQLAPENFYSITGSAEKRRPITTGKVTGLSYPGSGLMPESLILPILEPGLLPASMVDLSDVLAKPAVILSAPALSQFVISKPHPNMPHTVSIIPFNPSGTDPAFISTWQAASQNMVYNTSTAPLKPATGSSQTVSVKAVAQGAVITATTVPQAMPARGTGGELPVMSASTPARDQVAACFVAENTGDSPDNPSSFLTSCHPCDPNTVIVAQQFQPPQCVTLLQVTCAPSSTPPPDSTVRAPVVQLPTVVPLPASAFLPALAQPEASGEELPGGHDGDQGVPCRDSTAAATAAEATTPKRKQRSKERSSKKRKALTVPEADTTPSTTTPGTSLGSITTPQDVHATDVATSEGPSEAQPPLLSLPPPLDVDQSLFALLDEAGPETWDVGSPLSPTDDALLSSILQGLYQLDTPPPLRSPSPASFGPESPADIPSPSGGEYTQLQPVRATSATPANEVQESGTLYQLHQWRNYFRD
Heterogeneous nuclear ribonucleoprotein U isoform B (Q00839-2, form named): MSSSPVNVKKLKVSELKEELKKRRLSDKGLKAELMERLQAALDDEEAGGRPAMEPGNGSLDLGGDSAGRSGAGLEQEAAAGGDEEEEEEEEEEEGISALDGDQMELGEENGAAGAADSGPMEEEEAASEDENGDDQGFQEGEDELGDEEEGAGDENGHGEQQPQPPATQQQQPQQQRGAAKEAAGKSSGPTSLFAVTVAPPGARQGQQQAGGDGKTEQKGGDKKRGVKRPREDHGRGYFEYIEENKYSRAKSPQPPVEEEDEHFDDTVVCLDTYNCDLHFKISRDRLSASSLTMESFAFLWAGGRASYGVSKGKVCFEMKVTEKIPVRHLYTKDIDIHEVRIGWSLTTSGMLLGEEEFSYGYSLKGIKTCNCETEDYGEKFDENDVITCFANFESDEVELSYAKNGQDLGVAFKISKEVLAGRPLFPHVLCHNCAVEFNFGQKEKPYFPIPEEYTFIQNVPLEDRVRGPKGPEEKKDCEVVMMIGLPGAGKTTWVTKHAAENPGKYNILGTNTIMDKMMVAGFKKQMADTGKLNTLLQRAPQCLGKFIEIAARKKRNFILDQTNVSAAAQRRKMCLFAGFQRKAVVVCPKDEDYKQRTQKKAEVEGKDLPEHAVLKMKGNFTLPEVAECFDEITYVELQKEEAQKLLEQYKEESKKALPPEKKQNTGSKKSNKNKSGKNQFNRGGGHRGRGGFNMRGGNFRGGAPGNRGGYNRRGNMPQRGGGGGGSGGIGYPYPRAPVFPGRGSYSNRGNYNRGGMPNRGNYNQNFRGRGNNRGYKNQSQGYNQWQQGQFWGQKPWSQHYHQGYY

B1: Serpin H1 precursor (protein, UniProt P50454 19-418)
chain: AEVKKPAAAAAPGTAEKLSPKAATLAERSAGLAFSLYQAMAKDQAVENILVSPVVVASSLGLVSLGGKATTASQAKAVLSAEQLRDEEVHAGLGELLRSLSNSTARNVTWKLGSRLYGPSSVSFADDFVRSSKQHYNCEHSKINFRDKRSALQSINEWAAQTTDGKLPEVTKDVERTDGALLVNAMFFKPHWDEKFHHKMVDNRGFMVTRSYTVGVMMMHRTGLYNYYDDEKEKLQIVEMPLAHKLSSLIILMPHHVEPLERLEKLLTKEQLKIWMGKMQKKAVAISLPKGVVEVTHDLQKHLAGLGLTEAIDKNKADLSRMSGKKDLYLASVFHATAFELDTDGNPFDQDIYGREELRSPKLFYADHPFIFLVRDTQSGSLLFIGRLVRPKGDKMRDEL

Key:
[1] = biological target: LANA-Flag (Kaposi's sarcoma-associated herpesvirus (KSHV)) (UniProt Q9QR71); experiment: co-IP
[2] = biological target: RTA-myc (Kaposi's sarcoma-associated herpesvirus (KSHV)) (UniProt F5HCV3); experiment: co-IP
[3] = biological target: endogenous LANA (KSHV (endogenous in BCBL1 PEL cells)) (UniProt Q9QR71); experiment: co-IP; endogenous proteins; KSHV-positive BCBL1 PEL cells, KSHV-negative BJAB cells as control; IP with LANA-specific antibodies, immunoblot

| Molecule | binding [1] | binding [2] | binding [3] |
| --- | --- | --- | --- |
| Heterogeneous nuclear ribonucleoprotein U isoform B (from UniProt Q00839-2 1-806) | binds | no binding | binds |
| B1 | binds | no binding |  |
